These are yes or no findings as the source states them, for the method shown. In cells and extracts the contact can be indirect. These calls come from enrichment with a bait or labelling near it, and not all partners need be listed.
biological target: Biotin-FOXC1 (mouse) (UniProt Q61572); experiment: affinity purification with mass spectrometry; streptavidin-agarose precipitation of biotinylated FOXC1 from nuclear extract of stable HEK293T cells (293T-Biotin-FOXC1); IP350 buffer (350 mM NaCl, 20 mM Tris-HCl pH 7.5, 0.5% NP40, 1 mM EDTA, 10% glycerin); SDS-PAGE, LC-ESI-MS/MS; proteins of the 293T-Biotin control deducted

Binder	binding
Mcm3 (protein, UniProt P25205 1-808) MAGTVVLDDVELREAQRDYLDFLDDEEDQGIYQSKVRELISDNQYRLIVNVNDLRRKNEKRANRLLNNAFEELVAFQRALKDFVASIDATYAKQYEEFYVGLEGSFGSKHVSPRTLTSCFLSCVVCVEGIVTKCSLVRPKVVRSVHYCPATKKTIERRYSDLTTLVAFPSSSVYPTKDEENNPLETEYGLSVYKDHQTITIQEMPEKAPAGQLPRSVDVILDDDLVDKAKPGDRVQVVGTYRCLPGKKGGYTSGTFRTVLIACNVKQMSKDAQPSFSAEDIAKIKKFSKTRSKDIFDQLAKSLAPSIHGHDYVKKAILCLLLGGVERDLENGSHIRGDINILLIGDPSVAKSQLLRYVLCTAPRAIPTTGRGSSGVGLTAAVTTDQETGERRLEAGAMVLADRGVVCIDEFDKMSDMDRTAIHEVMEQGRVTIAKAGIHARLNARCSVLAAANPVYGRYDQYKTPMENIGLQDSLLSRFDLLFIMLDQMDPEQDREISDHVLRMHRYRAPGEQDGDAMPLGSAVDILATDDPNFSQEDQQDTQIYEKHDNLLHGTKKKKEKMVSAAFMKKYIHVAKIIKPVLTQESATYIAEEYSRLRSQDSMSSDTARTSPVTARTLETLIRLATAHAKARMSKTVDLQDAEEAVELVQYAYFKKVLEKEKKRKKRSEDESETEDEEEKSQEDQEQKRKRRKTRQPDAKDGDSYDPYDFSDTEEEMPQVHTPKTADSQETKESQKVELSESRLKAFKVALLDVFREAHAQSIGMNRLTESINRDSEEPFSSVEIQAALSKMQDDNQVMVSEGIIFLI	binds
Zc3hav1l (protein, UniProt Q96H79 1-300) MAEPTVCSFLTKVLCAHGGRMFLKDLRGHVELSEARLRDVLQRAGPERFLLQEVETQEGLGDAEAEAAAGAVGGGGTSAWRVVAVSSVRLCARYQRGECQACDQLHFCRRHMLGKCPNRDCWSTCTLSHDIHTPVNMQVLKSHGLFGLNENQLRILLLQNDPCLLPEVCLLYNKGEALYGYCNLKDKCNKFHVCKSFVKGECKLQTCKRSHQLIHAASLKLLQDQGLNIPSVVNFQIISTYKHMKLHKMLENTDNSSPSTEHSQGLEKQGVHAAGAAEAGPLASVPAQSAKKPCPVSCEK	binds
S100a8 (protein, UniProt P05109 1-93) MLTELEKALNSIIDVYHKYSLIKGNFHAVYRDDLKKLLETECPQYIRKKGADVWFKELDINTDGAVNFQEFLILVIKMGVAAHKKSHEESHKE	binds
Gtf2h2 (protein, UniProt Q13888 1-395) MDEEPERTKRWEGGYERTWEILKEDESGSLKATIEDILFKAKRKRVFEHHGQVRLGMMRHLYVVVDGSRTMEDQDLKPNRLTCTLKLLEYFVEEYFDQNPISQIGIIVTKSKRAEKLTELSGNPRKHITSLKKAVDMTCHGEPSLYNSLSIAMQTLKHMPGHTSREVLIIFSSLTTCDPSNIYDLIKTLKAAKIRVSVIGLSAEVRVCTVLARETGGTYHVILDESHYKELLTHHVSPPPASSSSECSLIRMGFPQHTIASLSDQDAKPSFSMAHLDGNTEPGLTLGGYFCPQCRAKYCELPVECKICGLTLVSAPHLARSYHHLFPLDAFQEIPLEEYNGERFCYGCQGELKDQHVYVCAVCQNVFCVDCDVFVHDSLHCCPGCIHKIPAPSGV	binds
Ddx1 (protein, UniProt Q92499 1-740) MAAFSEMGVMPEIAQAVEEMDWLLPTDIQAESIPLILGGGDVLMAAETGSGKTGAFSIPVIQIVYETLKDQQEGKKGKTTIKTGASVLNKWQMNPYDRGSAFAIGSDGLCCQSREVKEWHGCRATKGLMKGKHYYEVSCHDQGLCRVGWSTMQASLDLGTDKFGFGFGGTGKKSHNKQFDNYGEEFTMHDTIGCYLDIDKGHVKFSKNGKDLGLAFEIPPHMKNQALFPACVLKNAELKFNFGEEEFKFPPKDGFVALSKAPDGYIVKSQHSGNAQVTQTKFLPNAPKALIVEPSRELAEQTLNNIKQFKKYIDNPKLRELLIIGGVAARDQLSVLENGVDIVVGTPGRLDDLVSTGKLNLSQVRFLVLDEADGLLSQGYSDFINRMHNQIPQVTSDGKRLQVIVCSATLHSFDVKKLSEKIMHFPTWVDLKGEDSVPDTVHHVVVPVNPKTDRLWERLGKSHIRTDDVHAKDNTRPGANSPEMWSEAIKILKGEYAVRAIKEHKMDQAIIFCRTKIDCDNLEQYFIQQGGGPDKKGHQFSCVCLHGDRKPHERKQNLERFKKGDVRFLICTDVAARGIDIHGVPYVINVTLPDEKQNYVHRIGRVGRAERMGLAISLVATEKEKVWYHVCSSRGKGCYNTRLKEDGGCTIWYNEMQLLSEIEEHLNCTISQVEPDIKVPVDEFDGKVTYGQKRAAGGGSYKGHVDILAPTVQELAALEKEAQTSFLHLGYLPNQLFRTF	binds
Sbno1 (protein, UniProt A3KN83 1-1393) MVEPGQDLLLAALSESGISPNDLFDIDGGDAGLATPMPTPSVQQSVPLSALELGLETEAAVPVKQEPETVPTPALLNVRQQPPSTTTFVLNQINHLPPLGSTIVMTKTPPVTTNRQTITLTKFIQTTASTRPSVSAPTVRNAMTSAPSKDQVQLKDLLKNNSLNELMKLKPPANIAQPVATAATDVSNGTVKKESSNKEGARMWINDMKMRSFSPTMKVPVVKEDDEPEEEDEEEMGHAETYAEYMPIKLKIGLRHPDAVVETSSLSSVTPPDVWYKTSISEETIDNGWLSALQLEAITYAAQQHETFLPNGDRAGFLIGDGAGVGKGRTIAGIIYENYLLSRKRALWFSVSNDLKYDAERDLRDIGAKNILVHSLNKFKYGKISSKHNGSVKKGVIFATYSSLIGESQSGGKYKTRLKQLLHWCGDDFDGVIVFDECHKAKNLCPVGSSKPTKTGLAVLELQNKLPKARVVYASATGASEPRNMAYMNRLGIWGEGTPFREFSDFIQAVERRGVGAMEIVAMDMKLRGMYIARQLSFTGVTFKIEEVLLSQSYVKMYNKAVKLWVIARERFQQAADLIDAEQRMKKSMWGQFWSAHQRFFKYLCIASKVKRVVQLAREEIKNGKCVVIGLQSTGEARTLEALEEGGGELNDFVSTAKGVLQSLIEKHFPAPDRKKLYSLLGIDLTAPSNNSSPRDSPCKENKIKKRKGEEITREAKKARKVGGLTGSSSDDSGSESDASDNEESDYESSKNMSSGDDDDFNPFLDESNEDDENDPWLIRKDHKKNKEKKKKKSIDPDSIQSALLASGLGSKRPSFSSTPVISPAPNSTPANSNTNSNSSLITSQDAVERAQQMKKDLLDKLEKLAEDLPPNTLDELIDELGGPENVAEMTGRKGRVVSNDDGSISYESRSELDVPVEILNITEKQRFMDGDKNIAIISEAASSGISLQADRRAKNQRRRVHMTLELPWSADRAIQQFGRTHRSNQVTAPEYVFLISELAGEQRFASIVAKRLESLGALTHGDRRATESRDLSRFNFDNKYGRNALEIVMKSIVNLDSPMVSPPPDYPGEFFKDVRQGLIGVGLINVEDRSGILTLDKDYNNIGKFLNRILGMEVHQQNALFQYFADTLTAVVQNAKKNGRYDMGILDLGSGDEKVRKSDVKKFLTPGYSTSGHVELYTISVERGMSWEEATKIWAELTGPDDGFYLSLQIRNNKKTAILVKEVNPKKKLFLVYRPNTGKQLKLEIYADLKKKYKKVVSDDALMHWLDQYNSSADTCTHAYWRGNCKKASLGLVCEIGLRCRTYYVLCGSVLSVWTKVEGVLASVSGTNVKMQIVRLRTEDGQRIVGLIIPANCVSPLVNLLSTSDQSQQLAVQQKQLWQQHHPQSITNLSNA	binds
Swt1 (protein, UniProt Q5T5J6 1-900) MSSKESCGKKETSQRKDTTTSSPNFGEKDKKERKTPASSTSSSSIRSVSSEKRKLKSDHTDVLYYNIKRRQGLKRLSVEIDTLRRRPKIGSSSQRPIKLKEASYSNDNQIILQSPSSNGTKKDIHKCVDFKPKDIKLTNAGSKLDHGIKSLSSPKIASDVKPKAEGQASENKWSHLLVQREKMKELKKGRNSKFRDNSEKCVLEKWKRNQFSQDYNSNKIIKEPLGSRRQKISFKIPIKSRDTLQKLVEENVFNIDSNNSKTKQEEREYLESSQVSLNVTRQKTEHLLSDFTYKRTVHEWKRKHHYDHQESNDSHSRENLTQSFEAPCCSVSSESIQDADQEMQIVEELHAARVGKSVDLPGELMSMEIDLEDDVHSSSANNTSDRKLLIVIDTNILMNHLKFVRILKTTEVPGFDKLVLIIPWVVMQELDRMKEGKLLKRAQHKAIPAVHFINDSLKNQDRKLWGQSIQLASQKHYGLSDENNDDRVLKCCLQHQELFPCSFVILCTDDRNLRNKGLISGVKSLSKEELSAELLHLSLNTDVCHQPCIPKQQLKAETTPLKESYKEESTNSGLSILLESIVSDLEKSLGTGLSSILETEMKIAFGNLWMEILYLKPPWTLLHLLQCFKKHWLAVFGLVMEKNLLLTIESLYKNLRKANKAVDFTTVKFLLQDSRSLLHAFSTRSNYDGILPQTFAQVNNLLQTFAEVKTKLKPNSSENTVTKKQEGTSLKNSHNQEITVFSSSHLPQPSRHQEIWSILESVWITIYQNSTDVFQRLGSNSALTTSNIASFEEAFICLQKLMAAVRDILEGIQRILAPNSNYQDVETLYNFLIKYEVNKNVKFTAQEIYDCVSQTEYREKLTIGCRQLVEMEYTMQQCNASVYMEAKNRGWCEDMLNYRI	binds
Knop1 (protein, UniProt Q1ED39 1-458) MITKTHKVDLGLPEKKKKKKVVKEPETRYSVLNNDDYFADVSPLRATSPSKSVAHGQAPEMPLVKKKKKKKKGVSTLCEEHVEPETTLPARRTEKSPSLRKQVFGHLEFLSGEKKNKKSPLAMSHASGVKTSPDPRQGEEETRVGKKLKKHKKEKKGAQDPTAFSVQDPWFCEAREARDVGDTCSVGKKDEEQAALGQKRKRKSPREHNGKVKKKKKIHQEGDALPGHSKPSRSMESSPRKGSKKKPVKVEAPEYIPISDDPKASAKKKMKSKKKVEQPVIEEPALKRKKKKKRKESGVAGDPWKEETDTDLEVVLEKKGNMDEAHIDQVRRKALQEEIDRESGKTEASETRKWTGTQFGQWDTAGFENEDQKLKFLRLMGGFKNLSPSFSRPASTIARPNMALGKKAADSLQQNLQRDYDRAMSWKYSRGAGLGFSTAPNKIFYIDRNASKSVKLED	binds
Nob1 (protein, UniProt Q9ULX3 1-412) MAPVEHVVADAGAFLRHAALQDIGKNIYTIREVVTEIRDKATRRRLAVLPYELRFKEPLPEYVRLVTEFSKKTGDYPSLSATDIQVLALTYQLEAEFVGVSHLKQEPQKVKVSSSIQHPETPLHISGFHLPYKPKPPQETEKGHSACEPENLEFSSFMFWRNPLPNIDHELQELLIDRGEDVPSEEEEEEENGFEDRKDDSDDDGGGWITPSNIKQIQQELEQCDVPEDVRVGCLTTDFAMQNVLLQMGLHVLAVNGMLIREARSYILRCHGCFKTTSDMSRVFCSHCGNKTLKKVSVTVSDDGTLHMHFSRNPKVLNPRGLRYSLPTPKGGKYAINPHLTEDQRFPQLRLSQKARQKTNVFAPDYIAGVSPFVENDISSRSATLQVRDSTLGAGRRRLNPNASRKKFVKKR	binds

Reference: PMC7956269
